# Measurements taken from PubChem BioAssay AID504648 (National Center for Advancing Translational Sciences (NCATS), 2011).
# Out of some 390,000 compounds screened, about 610 (0.16%) were called active. Inconclusive results, whose numbers are uncertain, are shown with a selection of clear calls. Calls come from the whole dose curve; as a rule, active = well fitted inhibition curve with a large enough effect; inconclusive = small, poorly fitted or top-dose-only effect, or effect the other way, or another doubt; inactive = no such curve, though single readings can be large or run the other way. Where the call is inconclusive, the potency comes from a doubtful curve fit.
# Assay: Nrf2 qHTS screen for inhibitors: counterscreen for cytotoxicity
# Conditions: A549 ARE-Fluc cells, CellTiter-Fluor viability, 18-24 h; activity change, negative = cytotoxicity: at 46 µM (top of the series)
# In short: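 Cytotoxicity counterscreen: CellTiter-Fluor fluorescence was measured in A549 ARE_Fluc cells after 18-24 h of compound exposure in a concentration series. The subsequent BugLite luminescent read reports ARE-luciferase activity.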
# % is set by controls: 0 for no effect and ±100 for the full control effect; potency is the fitted concentration of half-maximal effect.
Structure (SMILES),Potency,"activity change, negative = cytotoxicity"
Cc1ccc(S(=O)(=O)NCc2ccc(C(=O)N3CCN(c4ccc([N+](=O)[O-])cc4)CC3)cc2)cc1,"inconclusive: 20.6 µM [falling, partial curve, poor fit]",
CCC1(C)Cc2c(C#N)c(N)n(-c3ccccc3)c(=O)c2CO1 (stereo not given),"inconclusive: 29.1 µM [activator, single point]",
OCCCc1cn(Cc2ccccc2)c2ccccc12,inactive,
COc1cc(NCc2ccccc2)c2ncn(Cc3ccccc3)c2c1,"inconclusive: 29.1 µM [falling, single point]",
Cc1ccc(NC(=O)CNc2ccc(OC(C)C)cc2)cc1,"inconclusive: 4.61 µM [falling, full curve]",
CC1CCN(S(=O)(=O)c2cccc(C(=O)NCC3CCCO3)c2)CC1 (stereo not given),inactive,
CCc1ccccc1NC(=O)N1CCC(NC(=O)C(Cc2ccccc2)NC(C)=O)CC1 (stereo not given),inactive,
CCc1c(C)nc2ncnn2c1N1CCC(C(=O)Nc2ccccc2)CC1,,inactive: -8.78% [at 1.84 µM]
COc1ccc(OC)c(NC(=O)CC2SC(=Nc3ccc(F)cc3)N(CCC3=CCCCC3)C2=O)c1 (stereo not given),"inconclusive: 18.4 µM [falling, partial curve, poor fit]",
CC(C)Oc1ccc(CNC(=O)CCCn2c(=O)c3cccn3c3cccnc32)cc1,inactive,
COc1cc(-c2nc3ccc(C)cn3c2Nc2ccc(Cl)cc2)ccc1O,"inconclusive: 29.1 µM [falling, single point]",
Cc1ccc(NC(=S)NC(NC(=O)c2ccccc2)C(Cl)(Cl)Cl)c(C)c1 (stereo not given),"inconclusive: 23.1 µM [falling, single point]",
NC1=NC(=O)/C(=C/C=C/c2cccs2)S1,"inconclusive: 25.9 µM [falling, single point]",
Cc1ccc(Cn2c(C(=O)O)c(CNCCc3ccco3)c3ccc(C)cc32)cc1,"inconclusive: 32.6 µM [falling, single point]",
CCOc1ccc(S(=O)(=O)NC(C)(C)C)cc1-c1nc2c(C(C)(C)C)nn(C)c2c(=O)[nH]1,"inconclusive: 29.1 µM [falling, single point]",
O=C(Nc1nnc(SCc2ccc(F)cc2)s1)c1ccccn1,"inconclusive: 29.1 µM [falling, single point]",
CCCOc1ccc(C(=O)C(CN2CCCC2)c2ccccc2)cc1 (stereo not given),inactive,
CCOC(=O)c1cc2ccc(OC(=O)c3ccco3)cc2oc1=O,"inconclusive: 20.6 µM [activator, partial curve]",
CCCN(CCC)S(=O)(=O)c1ccc(C(=O)Nc2nnc(-c3cccc(OC)c3)o2)cc1,"inconclusive: 23.1 µM [falling, single point]",
O=C1c2[nH]nc(-c3ccccc3O)c2C(c2ccc(F)cc2)N1Cc1ccco1 (stereo not given),"inconclusive: 20.6 µM [falling, single point]",
Cc1cc(Cl)ccc1NC(=O)CN1C(=O)C(=O)c2ccccc21,inactive,
O=C(Nc1cccc(S(=O)(=O)c2cccc(NC(=O)c3ccco3)c2)c1)c1ccco1,inactive,
COc1ccc(S(=O)(=O)Cc2ccc(C(=O)NC3CCCCC3)o2)cc1,inactive,

Structure (SMILES),Potency,"activity change, negative = cytotoxicity"
COC1=C(Nc2ccc(C)cc2)C(=O)c2ccccc2C1=O,"inconclusive: 29.1 µM [falling, single point]",
COC(=O)c1ccccc1NC(=O)Nc1nnc(N2CCCCC2C)s1 (stereo not given),"inconclusive: 10.3 µM [falling, partial curve, poor fit]",
COc1ccc(CC(=O)Nc2cccc(-c3nnc(-c4ccccc4)o3)c2)cc1OC,"inconclusive: 29.1 µM [falling, single point]",
O=C(Nc1ccc(O)cc1)c1cc2n(n1)C(C(F)(F)F)CC(c1ccco1)N2 (stereo not given),"inconclusive: 29.1 µM [falling, partial curve, poor fit]",
Nc1ccc(-c2nc3cc([N+](=O)[O-])ccc3o2)cc1,"inconclusive: 32.6 µM [falling, partial curve, poor fit]",
Cc1nn(C)c(C)c1CCC(=O)NC1CC(C)(C)Cc2c1cnn2-c1ccccc1 (stereo not given),inactive,
Cc1cc2[nH]c3c4ccccc4nc(C)c3c2cc1C,"inconclusive: 29.1 µM [falling, single point]",
Cc1ccc(NCC(=O)N/N=C\c2ccc([N+](=O)[O-])o2)cc1,"inconclusive: 16.4 µM [falling, single point]",
Cc1ccc(S(=O)(=O)c2c(N)n(CCC(C)C)c3nc4ccccc4nc23)cc1,"inconclusive: 29.1 µM [falling, single point]",
O=C(Nc1ccc(O)c2ncccc12)c1ccccc1F,inactive,
Cc1ccc(NS(=O)(=O)c2ccc(-n3cccn3)cc2)cc1F,inactive,
Cc1nc2c(nc1C)C(=O)c1ccccc1C2=O,"inconclusive: 18.4 µM [falling, single point]",
N#Cc1c2c(c(NCc3cccnc3)n3c1nc1ccccc13)CCC2,inactive,
COc1cc(OC)c(C(=O)Nc2ccncc2)cc1OC,"inconclusive: 0.58 µM [activator, full curve, poor fit]",
COc1ccc(NC(=O)CSc2nnc3ccc(-c4ccccn4)nn23)cc1,inactive,
O=C(NCCCn1ccnc1)c1nn2c(C(F)(F)F)cc(-c3ccc(Br)cc3)nc2c1Cl,"inconclusive: 29.1 µM [falling, single point]",
COCCNC(=O)c1c(N)n(-c2cccc(C)c2)c2nc3ccccc3nc12,"inconclusive: 29.1 µM [activator, single point]",
C=C(C(=O)c1ccccc1)C(NC(C)(C)C)c1ccccc1 (stereo not given),"inconclusive: 18.4 µM [falling, single point]",
CCC(=O)NC(c1ccc(OC)c(OC)c1)c1cc(Cl)c2cccnc2c1O (stereo not given),"inconclusive: 13 µM [falling, single point]",
Nc1nc(=S)c2n[nH]nc2[nH]1,inactive,
CCCN1CNc2c(c(=O)[nH]c(=S)n2CCc2ccccc2OC)C1,inactive,
Cc1ccc(S(=O)(=O)N2CCCCC2)cc1NC(=O)CSc1nnc(C2CC2)n1N,"inconclusive: 7.31 µM [falling, partial curve, poor fit]",

# As a short view, part of the list above:
Structure (SMILES),Potency,"activity change, negative = cytotoxicity"
Cc1cc2[nH]c3c4ccccc4nc(C)c3c2cc1C,"inconclusive: 29.1 µM [falling, single point]",
Cc1ccc(NCC(=O)N/N=C\c2ccc([N+](=O)[O-])o2)cc1,"inconclusive: 16.4 µM [falling, single point]",
